The values below come from PMC7819943, “Rice protein-binding microarrays: a tool to detect cis-acting elements near promoter regions in rice”.

This is one part of the list.

This test concerns the target T1, OsSMF1 (Oryza sativa, UniProt Q6ZLB0 1-436).
T1 sequence: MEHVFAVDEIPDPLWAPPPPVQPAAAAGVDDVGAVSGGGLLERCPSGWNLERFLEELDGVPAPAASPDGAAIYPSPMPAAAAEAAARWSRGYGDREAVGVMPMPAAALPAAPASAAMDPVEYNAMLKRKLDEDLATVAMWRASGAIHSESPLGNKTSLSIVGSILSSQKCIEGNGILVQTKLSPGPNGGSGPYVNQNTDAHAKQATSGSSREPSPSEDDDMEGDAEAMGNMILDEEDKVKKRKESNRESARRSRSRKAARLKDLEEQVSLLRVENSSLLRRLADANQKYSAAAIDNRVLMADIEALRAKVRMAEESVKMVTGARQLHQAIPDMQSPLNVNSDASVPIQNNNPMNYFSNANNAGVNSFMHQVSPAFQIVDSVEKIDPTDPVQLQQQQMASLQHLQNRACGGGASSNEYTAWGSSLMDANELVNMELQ
In words: protein-binding microarray (RPBM); PBS, 2% BSA, 51.3 ng/ul salmon testes DNA, 50 uM zinc acetate, 200 nM TF, 25 C, 1 h; high values mean tight binding. Particulars: protein: recombinant; tags: N-terminal polyhistidine and DsRed monomer fusion (pET32a); chain copies: 2; label: CyDye5-dUTP incorporated in the synthesized complementary strand; 3' TTTTT single-stranded linker to array surface; dsDNA, one strand shown. Put shortly: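 A custom Agilent array was converted to double-stranded form by primer extension with Cy5-dUTP and blocked with 2% BSA. Protein at 200 nM in PBS with 2% BSA, salmon testes DNA and 50 µM zinc acetate was applied for 1 h at 25 °C, followed by washing. The proteins were polyhistidine–DsRed N-terminal fusions of transcription factors, expressed in E. coli BL21-CodonPlus and Ni–NTA-purified. The binding signal is per-feature fluorescence intensity (arbitrary units) from an Axon 4000B scanner.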
Take “GCACGGGCTCAACACTAGTCATGTCGTTCTGTGGGCTGGGCGGAGTCACCTAGTGCAG”: the binding signal was 3300 fluorescence intensity (a.u.).

For “AGGGAGATGGACGTACGGCGTCACCGCCGCGTCGACGGACCGGAGTCACCTAGTGCAG”, the binding signal was 7110 fluorescence intensity (a.u.).

Take “GTGGGCCCCGCGGTCGCCTGGTCCCACATGTCAGTAATGCCGGAGTCACCTAGTGCAG”: the binding signal is 3190 fluorescence intensity (a.u.).

Turning to “TTGATGGCGATCTGCGAGGCCGTGCGGGTCACGGAGCGCGCGGAGTCACCTAGTGCAG”, the binding signal was 30900 fluorescence intensity (a.u.).

For the sequence “AAAACGCCCAATACGTACACCGCGCCCGCGTCACGTCACCCGGAGTCACCTAGTGCAG”, the binding signal was 6660 fluorescence intensity (a.u.).

Take “GCCGCCGCCATCTCCCTGGCCGCGGCCACCGTCAGCGAGGCGGAGTCACCTAGTGCAG”: the binding signal is 5280 fluorescence intensity (a.u.).

Turning to “ATAGCATATGGCTTATCTCATAATTCATGACATCACAAACCGGAGTCACCTAGTGCAG”, the binding signal is 3750 fluorescence intensity (a.u.).

Consider “AGTTTAGACCACTAGCTGTGTAGTCACGTCCATTTAGTAACGGAGTCACCTAGTGCAG”, for which the binding signal was 3300 fluorescence intensity (a.u.).

For the sequence “ATCAGGAAACAGTCTCTGCTTGCTTGCGTAAGCTGACGACCGGAGTCACCTAGTGCAG”, the binding signal was 6420 fluorescence intensity (a.u.).

As for “GAAGTTCCCGTAAACGTCGACACGTCGTCCAGCTTTATCACGGAGTCACCTAGTGCAG”, the binding signal was 7300 fluorescence intensity (a.u.).

Turning to “CTACAAACCACTAAATGACACACACATTTGCTATCCTGTCCGGAGTCACCTAGTGCAG”, the binding signal was 4260 fluorescence intensity (a.u.).

On to “ATTCTTATCCTGCTTTTATATGTTTCACATCCCCTTCATACGGAGTCACCTAGTGCAG”, for which the binding signal is 21700 fluorescence intensity (a.u.).

Take “CACTGAACCCACATATCATATACATATAAGGACCCACATGCGGAGTCACCTAGTGCAG”: the binding signal is 28700 fluorescence intensity (a.u.).

“TGTTGATCTTGGCGATGACACGGCCACAATGATCTGCAAACGGAGTCACCTAGTGCAG”: the binding signal is 4620 fluorescence intensity (a.u.).

For the sequence “CGGGCCAGCTACTATTCCGGCCGCCTACGTCCGCCGTGCGCGGAGTCACCTAGTGCAG”, the binding signal is 3550 fluorescence intensity (a.u.).

On to “AGAACGAAACAAACTCGGCATCTCCATCGTGCCATCCACCCGGAGTCACCTAGTGCAG”, for which the binding signal was 3420 fluorescence intensity (a.u.).

“TGTGGTATGTGGAGCCAAAGCTAATGACAGGGGACCAGCACGGAGTCACCTAGTGCAG”: the binding signal was 3240 fluorescence intensity (a.u.).

Regarding “TATTCATTTCCCATTGTTCTCCTCATTAGTCATTAATCTGCGGAGTCACCTAGTGCAG”, the binding signal is 3390 fluorescence intensity (a.u.).

With “TGACTTCCTCAGTCTTAGTCATTAGTGTACCCCTTGTATTCGGAGTCACCTAGTGCAG”, the binding signal is 4800 fluorescence intensity (a.u.).

On to “ATCATTTATTTTATTATGACTTGATTCGTCATCAAATGTTCGGAGTCACCTAGTGCAG”, for which the binding signal is 6360 fluorescence intensity (a.u.).

With “TACTATACATCTGATGGCCTGGTGCAGTTCTTTGATGAAACGGAGTCACCTAGTGCAG”, the binding signal is 3620 fluorescence intensity (a.u.).

On to “TCTCGCTTAATGTTTTCTTTACACATACGATGCTTTAGATCGGAGTCACCTAGTGCAG”, for which the binding signal is 3790 fluorescence intensity (a.u.).

As to “CCCCATTTTCTTTGTTTCTACTTCTCTTTCCCTTTCTTGTCGGAGTCACCTAGTGCAG”, the binding signal is 3390 fluorescence intensity (a.u.).

As to “TCATTAACATCAATATGAATGTGAGAAATGCTAGAATGACCGGAGTCACCTAGTGCAG”, the binding signal was 3240 fluorescence intensity (a.u.).

Regarding “AGGACGGCCGACCGCGTCACCATGATGTGCCACCTCGACGCGGAGTCACCTAGTGCAG”, the binding signal was 13700 fluorescence intensity (a.u.).

Take “GATGAGATCCCTCGTGGCATGCATTCAAGTATAGTTGGCCCGGAGTCACCTAGTGCAG”: the binding signal is 5950 fluorescence intensity (a.u.).

Turning to “ATAACCTTATTCAACTTCCGACTGACATCGTGCACGTCGGCGGAGTCACCTAGTGCAG”, the binding signal is 3740 fluorescence intensity (a.u.).

Turning to “GTGGATGCAGATGAGGTGTTCGATGTAATGCCGGGGTGGTCGGAGTCACCTAGTGCAG”, the binding signal is 3850 fluorescence intensity (a.u.).

On to “CCTCCATGACGCGTCTCACCTCCGCGGCTATCTCCCCGTACGGAGTCACCTAGTGCAG”, for which the binding signal is 5960 fluorescence intensity (a.u.).

In the case of “TGCACAATATATGCCACGCATCTTGTAACGTAGGAAATGCCGGAGTCACCTAGTGCAG”, the binding signal is 4320 fluorescence intensity (a.u.).

“GTATGCATGAGAGCATGACACTAACTAGCTAGAAGAACACCGGAGTCACCTAGTGCAG”: the binding signal was 3150 fluorescence intensity (a.u.).

Regarding “GATAGAACGACTCCTCAAACTATTGAAACCGGTGCAATTTCGGAGTCACCTAGTGCAG”, the binding signal was 23000 fluorescence intensity (a.u.).

For “GTAGTACCATGTATTAGATGGACTTCTCCACGTTTCTCTGCGGAGTCACCTAGTGCAG”, the binding signal is 4980 fluorescence intensity (a.u.).

“TTTACCAACATGCCATGTGTGATATTATTGCTGAATCATCCGGAGTCACCTAGTGCAG”: the binding signal was 6790 fluorescence intensity (a.u.).

For “TCCAACCATATGCCGCCACGTGTCCGGGCCCCGCAAGTCACGGAGTCACCTAGTGCAG”, the binding signal is 14100 fluorescence intensity (a.u.).

For “TGTTAGGGTGGGGTACTGCCTACGTGGGCCAATGCCTTCTCGGAGTCACCTAGTGCAG”, the binding signal was 5710 fluorescence intensity (a.u.).

In the case of “GTATATATACACGTATACAAAGTTTATATATGACGTATACCGGAGTCACCTAGTGCAG”, the binding signal is 6040 fluorescence intensity (a.u.).

Consider “TTCCTCCTTTCTCCGTCCACTCGCCGGAGTGAGTCACTCGCGGAGTCACCTAGTGCAG”, for which the binding signal is 10700 fluorescence intensity (a.u.).

As for “TCCGAGGCAGATCTCCACACGTATCTCCGCACTTGACTTTCGGAGTCACCTAGTGCAG”, the binding signal is 3370 fluorescence intensity (a.u.).

Turning to “CCTAGCTAGTAGCTGCTGGTAAACTACCGTCCTGAGCAACCGGAGTCACCTAGTGCAG”, the binding signal was 25700 fluorescence intensity (a.u.).

For “AAATAGAACTATGTCTTTCTTTCATCATCTCCTCCCGGCTCGGAGTCACCTAGTGCAG”, the binding signal was 3220 fluorescence intensity (a.u.).

On to “CTACACAAGTAAACTTTCAACTTTTCTGTCACATCATTTTCGGAGTCACCTAGTGCAG”, for which the binding signal was 3780 fluorescence intensity (a.u.).
